Among all 300,000 compounds or so, about 3,700 (1.2%) were called active. Inconclusive means that the source gave no clear call. Such entries were picked first, then a sample of the others. Calls come from the whole dose curve; tested in HEK293 cells. A potency beside an inconclusive call is a rough fit, not a confirmed value.
Assay: qHTS for Inhibitors of binding or entry into cells for Lassa Virus; note: nearly all actives have a fitted effect of over 50% in size
Conditions: Lassa virus pseudotype entry inhibition, cell reporter; series mostly up to 37.9 µM
Potency is the fitted concentration of half-maximal effect.

Structure (SMILES)	Potency
COc1cc2c(cc1OC)C(COc1ccc3c(C)cc(=O)oc3c1)N(C(=O)Cc1ccccc1)CC2 (stereo not given)	inconclusive: 3.55 µM [activator, single point]
O=[N+]([O-])c1ccc(Cl)c(-c2ccc(/C=N/n3cnnc3)o2)c1	inconclusive: 6.31 µM [inhibitor, partial curve, poor fit]
CCc1ccc(/C=C2/SC(N3CCOCC3)=NC2=O)cc1	inconclusive: 7.08 µM [inhibitor, full curve, poor fit]
Cc1cc(C(=O)CCl)c(C)n1-c1ccon1	inconclusive: 35.5 µM [inhibitor, single point]
OC1C[N+]2(CCCCC2)C1	inactive
CCN(C(=O)CCc1nc(-c2ccc(C)cc2)no1)c1cccc(Cl)c1	inactive
Cc1cc(C(=O)CSc2nc3ccccc3[nH]2)c(C)n1Cc1ccco1	active: 3.98 µM
COc1ccc(CN(C)C(=O)c2cc(-c3ccccc3)nc3ccc(C)cc23)c(OC)c1OC	inconclusive: 25.1 µM [inhibitor, single point]
S=c1[nH]nc(-c2cccc(Cl)c2)n1CCN1CCCCC1	inconclusive: 5.62 µM [activator, single point]
Cc1ccccc1NC(=O)c1nc(S(C)(=O)=O)ncc1N(Cc1ccco1)Cc1sccc1C	inconclusive: 1.26 µM [inhibitor, full curve]
Cc1ccccc1OCC(=O)Nc1ccc(C(=O)OCc2cc(=O)n3ccsc3n2)cc1	inactive
CC(=O)Nc1ccc2c(c1)Cc1c(F)cccc1-2	inconclusive: 0.447 µM [activator, full curve, poor fit]
O=C(COC(=O)c1nsc(Cl)c1Cl)NC1CCCCC1	inactive
O=C(O)C1C2C=CC(C2)C1C(=O)Nc1cccc(F)c1 (stereo not given)	inconclusive: 6.51 µM [activator, single point]
COc1ccc(C(=O)Nc2ccc3c4c(cccc24)CC3)cc1	inconclusive: 18.3 µM [activator, single point]
CCOC(=O)N1CCC(N2Cc3cccc(C(=O)Nc4ccc(CC)cc4)c3C2=O)CC1	inactive
O=C1CSC(c2nn(-c3ccccc3)cc2-c2cc3ccccc3oc2=O)N1Cc1ccco1 (stereo not given)	inconclusive: 13 µM [inhibitor, partial curve, poor fit]
CCNS(=O)(=O)c1ccc(CCC(=O)Nc2cc(Cl)ccc2Oc2ccccc2)cc1	inconclusive: 29.1 µM [inhibitor, single point]
CNc1c([N+](=O)[O-])ncn1C	inactive
FC(F)(F)c1cccc(NC(=S)Nc2cccc(Cl)c2)c1	inconclusive: 1 µM [inhibitor, partial curve, poor fit]
COc1ccc(-n2c(CCc3ccccc3)nnc2SCC(=O)c2ccccc2)cc1	inconclusive: 20 µM [inhibitor, single point]
Cc1ccc(C(=O)CSc2ncnc3ccccc23)o1	inconclusive: 5.62 µM [activator, single point]
COc1cccc(N(C(=O)c2snc(C(N)=O)c2N)C(C(=O)NCC2CCCO2)c2ccc(F)cc2)c1 (stereo not given)	inconclusive: 7.08 µM [inhibitor, full curve, poor fit]

Structure (SMILES)	Potency
CCOc1ccc(-n2c(=O)cc(N3CCN(c4ccccc4)CC3)[nH]c2=O)cc1	inactive
COc1ccc(NC(=O)c2cc(-c3ccccn3)nc3ccccc23)cc1S(=O)(=O)N(C)C	inconclusive: 35.5 µM [inhibitor, single point]
Cc1ccc(NC(=O)Cn2nnc(C(=O)NCCc3ccccc3)c2N)cc1	inactive
CCOc1ccc(OCC)c(NC(=O)CSc2nnnn2CC)c1	inactive
CCC(C)Sc1oc(-c2ccco2)nc1S(=O)(=O)c1ccc(Cl)cc1 (stereo not given)	inactive
COc1c(C)cc(Br)cc1C(=O)Nc1ccc(N2CCN(S(C)(=O)=O)CC2)cc1	inactive
O=C(NCc1ccc(F)cc1)C(=O)NCC1CCCN1S(=O)(=O)c1ccccc1 (stereo not given)	inconclusive: 10 µM [inhibitor, partial curve]
Cc1nn(-c2ccccc2)c(N2CCCC2)c1/C=N/NC(=O)c1cc(-c2cccnc2)nc2ccccc12	inconclusive: 7.08 µM [inhibitor, full curve]
Cc1cccc(NC(=O)CN2CCN(C(=O)C3CCC3)CC2)c1C	inconclusive: 6.31 µM [inhibitor, single point]
CCOC(=O)c1c(C)oc2ccc(OC(=O)COc3c(F)c(F)c(F)c(F)c3F)cc12	inconclusive: 1.03 µM [inhibitor, partial curve, poor fit]
COc1cccc(Cn2c(Oc3cccc(C)c3)nc3c2c(=O)n(C)c(=O)n3C)c1	inconclusive: 11.2 µM [inhibitor, partial curve]
CC(C)(C)n1cnc2cc(NS(=O)(=O)c3ccc(Br)cc3)ccc21	inconclusive: 15.8 µM [inhibitor, partial curve, poor fit]
COc1ccc(NC(=O)Nc2cccs2)cc1OC	inactive
CC(=O)c1ccc(NC(=O)COC(=O)c2ccccc2Sc2ccccc2C#N)cc1	inconclusive: 0.73 µM [inhibitor, full curve, poor fit]
CC1CN(CCS(=O)(=O)c2cc(Cl)ccc2Cl)CC(C)O1 (stereo not given)	inactive
CCOC(=O)c1ccc(NC2(c3ccccc3)C(=O)c3ccccc3C2=O)cc1	inconclusive: 12.6 µM [activator, partial curve, poor fit]
COc1ccccc1CNC(=O)C(Cc1c[nH]c2ccccc12)NC(=O)OCc1ccccc1 (stereo not given)	active: 4.47 µM
COc1ccc(-c2nc(N)ncc2-c2ccc(OC)c(OC)c2)c(O)c1	inconclusive: 0.158 µM [inhibitor, full curve, poor fit]
CCOC(=O)c1c(NC(=O)COc2ncnc3ccccc23)sc(C(C)=O)c1C	inactive
Cc1cc(NC(=O)c2ccco2)sc1C	inactive
CCc1c(O)c(/C(C)=N\O)c(=O)n(-c2ccccc2)c1-c1ccccc1	inconclusive: 0.891 µM [inhibitor, single point]
O=C(NC(=S)NCc1ccccc1)c1ccccc1	inconclusive: 22.4 µM [inhibitor, single point]

Another view of 4 compounds above.
CC(=O)c1ccc(NC(=O)COC(=O)c2ccccc2Sc2ccccc2C#N)cc1
  Potency: inconclusive: 0.73 µM [inhibitor, full curve, poor fit]
CC1CN(CCS(=O)(=O)c2cc(Cl)ccc2Cl)CC(C)O1 (stereo not given)
  Potency: inactive
CCOC(=O)c1ccc(NC2(c3ccccc3)C(=O)c3ccccc3C2=O)cc1
  Potency: inconclusive: 12.6 µM [activator, partial curve, poor fit]
COc1ccccc1CNC(=O)C(Cc1c[nH]c2ccccc12)NC(=O)OCc1ccccc1 (stereo not given)
  Potency: active: 4.47 µM

Reference: PubChem BioAssay AID540256 (National Center for Advancing Translational Sciences (NCATS), 2011)
